Experimental data: patent US4665224A, “Ester of (+) 6-methoxy-α-methyl-2-naphthalene acetic acid having mucosecretolytic, anti-inflammatory, analgesic, antipyretic activity, a process for its preparation and pharmaceutical compositions thereof” (priority 1984, dated 1987)

Key:
[1] = in vivo; details: mouse, po
Method: Method for studying the lethal dose 50 (LD50) in the mouse after a single administration.
Groups of 10 Swiss albine, female, adult mice (20-22 grams of body weight) fasting from the evening preceding the test, are treated orally with varying doses of the test drup suspended into hydroxyethylcellulose (0.5% w/v.)
Thereafter, the animals are fed again.

[2] = Gastric tolerability, gastric ulcerogenesys by repeated drug administrations; set-up: species or system rat (Wistar albine, female); details: in vivo; rat, oral for 5 days, daily dose, fed rats; read-out: Ulcerogenic dose 50% (UD50 in mg/kg os.)
Method: Method of gastric ulcerogenesys by repeated drug administrations.
Fed female Wistar albine rats (140-160 g of initial body weight) are used.
The test drug is administered orally for 5 days. At the end of the experiment, the rat's stomach is withdrawn, it is dissected along the lesser curvature, washed and observed in order to disclose the presence of either gastric lesions or manifest submucosa hemorrhages.

COc1ccc2cc([C@H](C)C(=O)O)ccc2c1 [(+)6-methoxy-α-methyl-2-naphthalene acetic acid, reference compound] gave an LD50 at 336 h [1] of 885 mg/kg and a TD50 at 120 h [2] of 30 mg/kg.
